The other results are listed elsewhere or left out. These are further read-outs of the screen, such as a control signal, another cell line or another target. No call is given for them. Most of these compounds were active or inconclusive in the main read-out, so they are no random draw. Words in brackets tell the shape of the fitted curve; partial curves, single points and poor fits give uncertain potencies.
Assay: qHTS Assay for Modulators of Lamin A Splicing
Settings: HeLa LMNA splicing GFP/RFP minigene ratio, 48 h
Procedure, shortened: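 S3 HeLa stable clones carrying a lamin A-EGFP splicing minigene plus DsRed2 were seeded at 600 cells/well in Opti-MEM with 2% FBS, pin-dosed and incubated 48 h at 37°C. Acumen cytometry (488 nm) gave the GFP/RFP total-intensity ratio.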

[1] = measured here: RFP viability control channel
[2] = measured here: GFP splicing reporter channel

| SMILES | AC50 [1] | AC50 [2] |
| --- | --- | --- |
| O=[N+]([O-])c1ccc(Oc2ccc(-c3cnc4ccccc4n3)cc2[N+](=O)[O-])cc1 | 2.82 µM [rising, full curve] | – |
| CC(C)CCNC(=O)c1ccc2c(c1)NC(=O)C(CS(=O)(=O)Cc1cccc(Br)c1)N2 (configuration not stated) | 35.5 µM [falling, single point] | 22.4 µM [falling, partial curve] |
| COc1ccc(-c2nc(-c3cccs3)c(-c3cccs3)[nH]2)cc1OC | 31.6 µM [rising, single point] | 35.5 µM [rising, single point] |
| O=C(Nc1ccc(Br)cn1)c1ccc([N+](=O)[O-])o1 | 12.6 µM [falling, partial curve] | 7.08 µM [falling, full curve] |
| Cc1cc(NC(=O)c2cccc([N+](=O)[O-])c2)n(-c2ccccc2)n1 | 17.8 µM [rising, single point] | 22.4 µM [rising, single point] |
| O=C(C1CCN(S(=O)(=O)c2ccc(Br)s2)CC1)N1CCc2ccccc21 | 14.1 µM [rising, partial curve] | 5.01 µM [rising, partial curve] |
| CC(C(=O)NCCN1CCOCC1)(c1ccccc1)c1ccccc1 | 0.0112 µM [falling, full curve, poor fit] | – |
| COc1ccccc1/C=N/NC(=O)c1csc(C)c1C | 0.0178 µM [falling, full curve, poor fit] | – |
| O=C(NC(=S)N1CCN(Cc2ccccc2)CC1)c1cccnc1 | 0.0141 µM [rising, full curve, poor fit] | – |
| CCn1c(=N)c(S(=O)(=O)c2ccc(C)cc2)cc2c(=O)n3ccccc3nc21 | 0.631 µM [falling, full curve, poor fit] | – |
| O=C(NC1CCCCC1)N1CCC(c2nc3ccc(Cl)cc3[nH]2)CC1 | 35.5 µM [rising, single point] | – |
| Cc1nn(S(=O)(=O)c2cccc([N+](=O)[O-])c2)c(C)c1Br | 14.1 µM [rising, single point] | – |
| O=C1C2C(C(=O)N1/N=C/c1cc(Br)cc([N+](=O)[O-])c1O)C1C=CC2C12CC2 (configuration not stated) | 11.2 µM [rising, single point] | – |
| COc1ccccc1N1CCN(C(c2ccccc2Cl)c2nnnn2C(C)(C)C)CC1 (configuration not stated) | 35.5 µM [rising, single point] | 35.5 µM [rising, single point] |
| CCC1CCCCN1CCCNC(=O)c1cc2c(Cl)nc3ccccc3c2s1 (configuration not stated) | 14.1 µM [rising, partial curve, poor fit] | – |
| Cc1ccc(-n2nc3c(c2NC(=O)/C=C\c2ccc4c(c2)OCO4)CSC3)cc1 | 12.6 µM [rising, partial curve, poor fit] | – |
| COc1ccc(CCNCC(O)Cn2ccc3ccccc32)cc1OC (configuration not stated) | 0.00316 µM [falling, full curve, poor fit] | – |
| Cc1ccc(CNC(=O)c2ccc3c(c2)nc(C)n3-c2cc(C)cc(C)c2)cc1 | – | 35.5 µM [falling, partial curve] |

Looked up by compound from above:

| SMILES | AC50 [1] | AC50 [2] |
| --- | --- | --- |
| COc1ccc(-c2nc(-c3cccs3)c(-c3cccs3)[nH]2)cc1OC | 31.6 µM [rising, single point] | 35.5 µM [rising, single point] |
| Cc1cc(NC(=O)c2cccc([N+](=O)[O-])c2)n(-c2ccccc2)n1 | 17.8 µM [rising, single point] | 22.4 µM [rising, single point] |

(listing goes on)

| SMILES | AC50 [1] | AC50 [2] |
| --- | --- | --- |
| COc1ccc(-n2nnnc2SCC(=O)c2ccc(O)c(O)c2)cc1 | 35.5 µM [rising, single point] | 35.5 µM [rising, single point] |
| C=CCNC(=S)NNc1ncnc2sc3c(c12)CC(C)(C)OC3 | 11.2 µM [falling, single point] | – |
| CCn1c(SCC(=O)Nc2nccs2)nnc1-c1ccc(S(=O)(=O)N2CCCCC2)cc1 | 12.6 µM [rising, partial curve] | – |
| CCCCC(=O)/C=C/n1c(=S)oc2ccccc21 | 35.5 µM [rising, single point] | – |
| NNc1nnc(-c2ccccc2)c(-c2ccccc2)n1 | 35.5 µM [rising, single point] | – |
| C=C(C)COc1ccc(-c2n[nH]c(C)c2-c2ccc(Br)cc2)c(O)c1 | 8.91 µM [falling, partial curve] | 10 µM [falling, partial curve] |
| CC(C)(C)N(Cc1ccccc1)C(=O)COC(=O)CCc1c[nH]c2ccccc12 | 35.5 µM [rising, single point] | – |
| CCCn1c(C)cc(C(=O)COC(=O)c2cc(S(=O)(=O)NCC(C)C)c(Cl)cc2Cl)c1C | 31.6 µM [rising, single point] | – |
| N#CC1=C(SCC(N)=O)NC2=C(C(=O)c3ccccc32)C1c1ccc(Cl)cc1 (configuration not stated) | 35.5 µM [falling, single point] | 22.4 µM [falling, single point] |
| Cc1cc(C)c(C#N)c(Oc2ccc(O)cc2)n1 | 10 µM [rising, partial curve, poor fit] | – |
| COc1ccc(Cl)cc1NC(=O)CN(C(=O)c1ccco1)C1CCCCC1 | 10 µM [rising, single point] | 8.91 µM [rising, partial curve] |
| CCCCOc1ccc(C(=O)CCN2CCOCC2)cc1 | 5.62 µM [falling, single point] | 5.62 µM [falling, single point] |
| COc1nnc(-c2ccc(N3CCOCC3)c(NC(=O)c3ccc(C)cc3)c2)c2ccccc12 | 20 µM [falling, single point] | – |
| CCN1C(=O)N[C@@H](c2ccco2)C(C(=O)OC)=C1C | 0.00631 µM [falling, full curve, poor fit] | – |
| COC(=O)Cc1c(O)ccn(Cc2ccc3c(c2)OCO3)c1=O | – | 0.0316 µM [rising, full curve, poor fit] |
| Cc1c(C(=O)N2c3ccccc3Sc3ccccc32)cccc1[N+](=O)[O-] | 17.8 µM [rising, partial curve, poor fit] | 1.26 µM [rising, full curve, poor fit] |
| CCc1cc2c(C)cc(=O)oc2cc1OC(=O)C1CCCN1C(=O)OC(C)(C)C (configuration not stated) | – | 14.1 µM [falling, partial curve, poor fit] |
